Experimental findings from patent publication US20050261292A1, “Pharmaceutical composition containing N-sulfamoyl-N'-arylpiperazines for the treatment or inhibition of obesity and related conditions” (Solvay Pharmaceuticals GmbH, priority 2004, published 2005) are described below.

In this data set the test system is dietary obese female Wistar rats. The experiment in a line: Chronic influence on food and water intake and body weight gain in vivo (carcass composition, plasma parameters). Set-up: species or system rat. Particulars: 28 days. As for the experimental part:
4. Chronic Influence on Food and Water Intake and Body Weight Gain in vivo
Female Wistar rats (weight range 250-300 g; Charles River, Margate, Kent) were housed in pairs in polypropylene cages with solid floors and sawdust bedding at a temperature of 21±4° C. and 55±20% humidity. Animals were maintained on a reverse phase light-dark cycle (lights off for 8 hours from 10.00-18.00 h) during which time the room was illuminated by red light. Animals had free access to powdered high fat diet (VRF1 plus 20% lard), ground chocolate, ground peanuts and tap water at all times. […] At least two weeks before the start of the baseline readings, animals were housed individually in polypropylene cages with wire grid floors to enable the food intake of each rat to be recorded. […]
The test substance of example 2 was suspended in 1% Tylose MH50, 0.1% poloxamer 188 and administered by oral gavage (2 ml/kg). […] At each reading, the tray below each cage was examined for spilt food, which was returned to the appropriate jar before weighing. […]
Animals were killed at the end of the study (by CO2 to minimize any fluid loss) on day 29 and blood samples (5 ml whole blood/animal) were collected by cardiac puncture. […] Body fat, protein, water and ash levels of the carcasses were determined using standard chemical analysis techniques. […]

Where a name gives a salt, the structure may show the parent alone.

Take `NS(=O)(=O)N1CCN(c2ccccc2)CC1` [Example 2, N-Sulfamoyl-N′-phenylpiperazine hydrochloride]: the “Total of water, fat, protein and ash, percent final body weight” value reads like this: (30 mg/kg po twice daily (0 h, 4 h)) 98.6%; (50 mg/kg po twice daily (0 h, 4 h)) 98.4%.
